Assay results: paper PMC12678687
These are yes or no findings as the source states them, for the method shown. Binding seen in cells or lysates may run through a third protein. These calls come from enrichment with a bait or labelling near it, and not all partners need be listed. Tags and fused reporters may be left off the sequences shown.

T1: PXL1-FLAG (PXY-LIKE1) from PXL1:PXL1-FLAG transgenic Arabidopsis (Arabidopsis thaliana) (UniProt Q9FRS6)
T1 sequence: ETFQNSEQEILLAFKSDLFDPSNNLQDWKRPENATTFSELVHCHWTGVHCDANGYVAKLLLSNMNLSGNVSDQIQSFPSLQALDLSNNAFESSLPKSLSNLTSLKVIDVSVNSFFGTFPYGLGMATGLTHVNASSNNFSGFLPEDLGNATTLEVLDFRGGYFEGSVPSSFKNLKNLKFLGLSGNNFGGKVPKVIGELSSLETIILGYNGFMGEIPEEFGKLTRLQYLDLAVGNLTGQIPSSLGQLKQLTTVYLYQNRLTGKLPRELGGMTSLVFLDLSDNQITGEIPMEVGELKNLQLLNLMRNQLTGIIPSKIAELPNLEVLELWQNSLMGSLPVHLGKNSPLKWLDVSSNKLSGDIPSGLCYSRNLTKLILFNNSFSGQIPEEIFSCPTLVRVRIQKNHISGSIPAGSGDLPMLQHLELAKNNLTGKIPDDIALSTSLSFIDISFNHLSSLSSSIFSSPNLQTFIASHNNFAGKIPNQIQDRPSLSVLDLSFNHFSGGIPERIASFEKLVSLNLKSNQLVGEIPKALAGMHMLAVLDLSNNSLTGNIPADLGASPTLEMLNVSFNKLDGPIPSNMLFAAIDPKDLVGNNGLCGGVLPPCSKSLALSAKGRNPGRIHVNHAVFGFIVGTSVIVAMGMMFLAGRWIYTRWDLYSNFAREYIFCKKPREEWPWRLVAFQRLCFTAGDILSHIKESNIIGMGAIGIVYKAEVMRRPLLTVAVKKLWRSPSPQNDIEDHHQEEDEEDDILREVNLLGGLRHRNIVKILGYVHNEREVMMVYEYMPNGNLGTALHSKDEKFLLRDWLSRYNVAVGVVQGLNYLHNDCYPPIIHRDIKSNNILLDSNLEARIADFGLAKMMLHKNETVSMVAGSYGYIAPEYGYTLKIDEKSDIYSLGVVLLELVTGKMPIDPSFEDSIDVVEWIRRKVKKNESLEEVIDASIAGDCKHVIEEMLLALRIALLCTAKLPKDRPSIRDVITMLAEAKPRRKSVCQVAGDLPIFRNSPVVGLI

B1: BSL1 (BSU-LIKE1), endogenous (enzyme, UniProt Q8L7U5 1-881)
chain: MGSKPWLHPAPQYKTLETFWDDEDDAPGPRCAHTLTAVAATKTHGPRLILFGGATAIEGGSSSVPGIRLAGVTNTVHSYDILTRKWTRLKPAGEPPSPRAAHAAAAVGTMVVFQGGIGPAGHSTDDLYVLDMTNDKFKWHRVVVQGDGPGPRYGHVMDLVSQRYLVTVTGNDGKRALSDAWALDTAQKPYVWQRLNPDGDRPSARMYASGSARSDGMFLLCGGRDTLGAPLGDAYGLLMHRNGQWEWTLAPGVAPSPRYQHAAVFVGARLHVSGGVLRGGRVIDAEASVAVLDTAAGVWLDRNGQVTSARGSKGQIDQDPSFELMRRCRHGAASVGIRIYVHGGLRGDVLLDDFLVAENSTFQSDISSPLLASDRTQQSSTPRFSYAARPPSGSEPSFSMSEGLSLDENSLEKLTEASAAEAEVASSVWRAAQLGAGTLDEEPSTSDASSPIVESTTDGTANEGDVRLHPRAVVVAKETVGSLGGMVRQLSLDQFQNESRRMVPMNNSDVPQPTKKFTRQKSPQGLHKKVIAALLRPRNWKPPGNRKFFLDSYEVGELCYAAEQIFMHEQTVLQLKAPIKVFGDLHGQFGDLMRLFDEYGFPSTAGDITYIDYLFLGDYVDRGQHSLETITLLLALKIEYPENVHLIRGNHEAADINALFGFRLECIERMGENDGIWAWTRFNQLFNYLPLAALIENKIICMHGGIGRSISTVEQIEKIERPITMDAGSLVLMDLLWSDPTENDSIEGLRPNARGPGLVTFGPDRVTEFCKRNKLQLIIRAHECVMDGFERFAQGQLITLFSATNYCGTANNAGAILVVGRGLVIVPKLIHPLPPPILSPENSPEHSGDDAWMQELNIQRPPTPTRGRPQPDFDRSSLAYI
B2: BSL2 (BSU-LIKE2), endogenous (enzyme, UniProt Q9SJF0 1-1018)
chain: MDEDSSMVADNDQDREFQSLDGGQSPSPMERETPQQMNDQSPPPEGGSVPTPPPSDPNPATSQQQAAAVVGQEQQPALVVGPRCAPTYSVVDAMMDKKEDGPGPRCGHTLTAVPAVGDEGTPGYIGPRLVLFGGATALEGNSGGTGTPTSAGSAGIRLAGATADVHCYDVLSNKWTRLTPFGEPPTPRAAHVATAVGTMVVIQGGIGPAGLSAEDLHVLDLTQQRPRWHRVVVQGPGPGPRYGHVMALVGQRYLMAIGGNDGKRPLADVWALDTAAKPYEWRKLEPEGEGPPPCMYATASARSDGLLLLCGGRDANSVPLASAYGLAKHRDGRWEWAIAPGVSPSSRYQHAAVFVNARLHVSGGALGGGRMVEDSSSVAVLDTAAGVWCDTKSVVTSPRTGRYSADAAGGDASVELTRRCRHAAAAVGDLIFIYGGLRGGVLLDDLLVAEDLAAAETTYAASHAAAAAATNSPPGRLPGRYGFSDERNRELSESAADGAVVLGSPVAPPVNGDMHTDISPENALLPGTRRTNKGVEYLVEASAAEAEAISATLAAAKARQVNGEVELPDRDCGAEATPSGKPTFSLIKPDSMGSMSVTPAGIRLHHRAVVVAAETGGALGGMVRQLSIDQFENEGRRVSYGTPESATAARKLLDRQMSINSVPKKVIAHLLKPRGWKPPVRRQFFLDCNEIADLCDSAERIFASEPTVLQLKAPIKIFGDLHGQFGDLMRLFDEYGSPSTAGDISYIDYLFLGDYVDRGQHSLETISLLLALKVEYQHNVHLIRGNHEAADINALFGFRIECIERMGERDGIWVWHRINRLFNWLPLAASIEKKIICMHGGIGRSINHVEQIENIQRPITMEAGSIVLMDLLWSDPTENDSVEGLRPNARGPGLVTFGPDRVMEFCNNNDLQLIVRAHECVMDGFERFAQGHLITLFSATNYCGTANNAGAILVLGRDLVVVPKLIHPLPPALSSPETSPERHIEDTWMQELNANRPATPTRGRPQNSNDRGGSLAWM
B3: BSL3 (BSU-LIKE3), endogenous (enzyme, UniProt Q9SHS7 1-1006)
chain: MDLDSSMVPENDQDPIATSENQSPMEEKEEASEQQTGSESESASLTPSLPPPSQQQQQQQQQPQVTAVVGPRCAPTYSVVNAIIEKKEDGPGPRCGHTLTAVPAVGEEGTSSYIGPRLILFGGATALEGNSGGTGTPTSAGSAGIRLAGATADVHCYDVLSNKWSRLTPYGEPPSPRAAHVATAVGTMVVIQGGIGPAGLSAEDLHVLDLTQQRPRWHRVVVQGPGPGPRYGHVMALVGQRYLMAIGGNDGKRPLADVWALDTAAKPYEWRKLEPEGEGPPPCMYATASARSDGLLLLCGGRDANSVPLASAYGLAKHRDGRWEWAIAPGVSPSARYQHAAVFVNARLHVSGGALGGGRMVEDSSSVAVLDTAAGVWCDTKSVVTSPRTGRYSADAAGGDASVELTRRCRHAAAAVGDLIFIYGGLRGGVLLDDLLVAEDLAAAETTSAASHAAAAAAATNTPPGRSPGRYGFSDERTGELPESAPDAVVLGSPVAPPVNGDMYTDISTENAMVPGIRRTSKGVEYLVEASAAEAEAISATLAAAKARQVNGEVELPDRDRGAEATPSGKPSLSLIKPDSAVPNSVIPAGVRLHHRAVVVAAETGGALGGMVRQLSIDQFENEGRRVSYGTPESATAARKLLDRQMSINSVPKKVVAHLLKPRGWKPPVRRQFFLDCNEIADLCDSAERIFSSEPTVLQLKAPIKIFGDLHGQFGDLMRLFDEYGSPSTAGDISYIDYLFLGDYVDRGQHSLETITLLLALKVEYQHNVHLIRGNHEAADINALFGFRIECIERMGERDGIWVWHRINRLFNWLPLAALIEKKIICMHGGIGRSINHVEQIENIQRPITMEAGSIVLMDLLWSDPTENDSVEGLRPNARGPGLVTFGPDRVMEFCNNNDLQLIVRAHECVMDGFERFAQGHLITLFSATNYCGTANNAGAILVLGRDLVVVPKLIHPLPPAITSPETSPERHIEDTWMQELNVNRPPTPTRGRPQNPNDRGSLAWI

Each binder was assayed against T1, PXL1-FLAG (PXY-LIKE1) from PXL1:PXL1-FLAG transgenic Arabidopsis (Arabidopsis thaliana) (assay: affinity purification with mass spectrometry; Co-IP/MS from inflorescence of PXL1:PXL1-FLAG transgenic plants).
For B1, the binding was “binds”. For B2, the binding was “binds”. B3 was tested, and the binding was “binds”.
